# Changes are numbered by the printed parent chain. These are yes or no findings as the source states them, for the method shown. For some of these results: Binding calls can cover weak binding; strength is not graded here. For some of these results: Tags and fused reporters may be left off the sequences shown. For some of these results: Binding seen in cells or lysates may run through a third protein.
# Assays:
# [1] = target: T1, AtEXO70B1 fused C-terminally with nVENUS (Arabidopsis thaliana) (UniProt Q9FGH9); assay: split reporter
# T1 sequence: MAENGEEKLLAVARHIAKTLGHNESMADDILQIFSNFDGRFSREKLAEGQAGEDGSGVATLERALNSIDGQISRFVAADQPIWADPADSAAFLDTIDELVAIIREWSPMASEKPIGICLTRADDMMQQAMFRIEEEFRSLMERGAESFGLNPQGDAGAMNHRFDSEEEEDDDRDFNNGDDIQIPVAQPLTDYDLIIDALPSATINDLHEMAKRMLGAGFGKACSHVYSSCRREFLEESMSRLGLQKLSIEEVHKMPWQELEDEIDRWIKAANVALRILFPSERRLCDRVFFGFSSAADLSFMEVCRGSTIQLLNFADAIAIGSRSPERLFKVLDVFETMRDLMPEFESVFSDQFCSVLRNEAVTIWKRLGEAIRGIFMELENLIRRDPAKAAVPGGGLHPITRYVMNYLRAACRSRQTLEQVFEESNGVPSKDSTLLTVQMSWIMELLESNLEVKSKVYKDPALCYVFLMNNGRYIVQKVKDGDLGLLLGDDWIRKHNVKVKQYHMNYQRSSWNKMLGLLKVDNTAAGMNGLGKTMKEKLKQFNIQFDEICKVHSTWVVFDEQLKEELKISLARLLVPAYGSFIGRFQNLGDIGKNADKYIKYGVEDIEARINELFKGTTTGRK
# [2] = target: T2, AtEXO70B1-AB truncation (1 to 388 amino acids), yeast two-hybrid fusion (Arabidopsis thaliana) (UniProt Q9FGH9); assay: two-hybrid
# T2 sequence: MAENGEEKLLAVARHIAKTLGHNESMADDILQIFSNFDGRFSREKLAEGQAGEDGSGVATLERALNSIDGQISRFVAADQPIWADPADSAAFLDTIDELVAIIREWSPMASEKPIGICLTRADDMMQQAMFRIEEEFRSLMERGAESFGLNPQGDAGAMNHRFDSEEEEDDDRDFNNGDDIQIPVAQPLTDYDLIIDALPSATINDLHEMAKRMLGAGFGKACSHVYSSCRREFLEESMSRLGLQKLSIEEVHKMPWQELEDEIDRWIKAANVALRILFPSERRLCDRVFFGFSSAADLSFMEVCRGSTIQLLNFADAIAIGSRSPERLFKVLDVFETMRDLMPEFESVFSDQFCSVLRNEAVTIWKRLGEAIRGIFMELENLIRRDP
# [3] = target: T3, Arabidopsis EXO84B, yeast two-hybrid fusion (Arabidopsis thaliana) (UniProt Q9LTB0); assay: two-hybrid
# T3 sequence: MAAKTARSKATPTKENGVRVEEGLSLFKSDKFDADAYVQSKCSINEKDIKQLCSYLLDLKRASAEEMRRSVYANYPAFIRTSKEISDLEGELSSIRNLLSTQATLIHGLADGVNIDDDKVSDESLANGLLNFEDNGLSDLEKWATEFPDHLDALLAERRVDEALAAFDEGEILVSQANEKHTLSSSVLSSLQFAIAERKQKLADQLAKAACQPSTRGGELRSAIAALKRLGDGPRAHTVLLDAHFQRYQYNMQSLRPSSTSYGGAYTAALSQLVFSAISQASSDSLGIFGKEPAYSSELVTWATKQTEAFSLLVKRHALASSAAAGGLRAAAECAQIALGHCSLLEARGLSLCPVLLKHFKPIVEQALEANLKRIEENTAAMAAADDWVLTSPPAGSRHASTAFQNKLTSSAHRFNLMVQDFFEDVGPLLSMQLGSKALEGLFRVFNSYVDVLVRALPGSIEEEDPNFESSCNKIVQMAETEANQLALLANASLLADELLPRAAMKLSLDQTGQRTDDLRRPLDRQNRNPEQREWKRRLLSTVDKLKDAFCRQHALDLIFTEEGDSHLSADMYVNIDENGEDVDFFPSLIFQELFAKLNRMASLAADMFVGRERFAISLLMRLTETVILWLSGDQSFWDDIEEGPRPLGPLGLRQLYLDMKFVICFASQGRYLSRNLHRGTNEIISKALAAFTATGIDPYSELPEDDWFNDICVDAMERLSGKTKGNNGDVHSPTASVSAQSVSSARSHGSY
# [4] = target: T4, Arabidopsis EXO84B, BiFC fusion (Arabidopsis thaliana) (UniProt Q9LTB0); assay: split reporter
# T4 sequence: T3 sequence
# [5] = target: T5, AtEXO70B1, yeast two-hybrid fusion (Arabidopsis thaliana) (UniProt Q9FGH9); assay: two-hybrid
# T5 sequence: T1 sequence
# [6] = target: T6, EXO70B1 full length, recombinant (Arabidopsis thaliana) (UniProt Q9FGH9); assay: SEC
# T6 sequence: T1 sequence
# [7] = target: T7, AtEXO70B1-BC truncation (319 to 511 amino acids), yeast two-hybrid fusion (Arabidopsis thaliana) (UniProt Q9FGH9); assay: two-hybrid
# T7 sequence: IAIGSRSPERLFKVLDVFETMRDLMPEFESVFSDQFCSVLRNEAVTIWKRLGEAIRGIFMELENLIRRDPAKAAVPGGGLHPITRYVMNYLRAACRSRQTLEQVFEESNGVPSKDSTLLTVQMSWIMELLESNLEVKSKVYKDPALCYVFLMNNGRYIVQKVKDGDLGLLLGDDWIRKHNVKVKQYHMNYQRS
# [8] = target: T8, AtEXO70B1-CD truncation (389 to 625 amino acids), yeast two-hybrid fusion (Arabidopsis thaliana) (UniProt Q9FGH9); assay: two-hybrid
# T8 sequence: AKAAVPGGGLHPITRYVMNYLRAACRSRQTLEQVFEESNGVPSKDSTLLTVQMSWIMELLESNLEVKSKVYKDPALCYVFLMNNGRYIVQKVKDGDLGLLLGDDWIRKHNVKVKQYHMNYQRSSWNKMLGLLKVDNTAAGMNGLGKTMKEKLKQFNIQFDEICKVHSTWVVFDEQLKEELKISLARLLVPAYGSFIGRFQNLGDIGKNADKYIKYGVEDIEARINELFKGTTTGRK
# [9] = target: T9, AtEXO70A1 splice form 1, yeast two-hybrid fusion (Arabidopsis thaliana) (UniProt Q9LZD3); assay: two-hybrid
# T9 sequence: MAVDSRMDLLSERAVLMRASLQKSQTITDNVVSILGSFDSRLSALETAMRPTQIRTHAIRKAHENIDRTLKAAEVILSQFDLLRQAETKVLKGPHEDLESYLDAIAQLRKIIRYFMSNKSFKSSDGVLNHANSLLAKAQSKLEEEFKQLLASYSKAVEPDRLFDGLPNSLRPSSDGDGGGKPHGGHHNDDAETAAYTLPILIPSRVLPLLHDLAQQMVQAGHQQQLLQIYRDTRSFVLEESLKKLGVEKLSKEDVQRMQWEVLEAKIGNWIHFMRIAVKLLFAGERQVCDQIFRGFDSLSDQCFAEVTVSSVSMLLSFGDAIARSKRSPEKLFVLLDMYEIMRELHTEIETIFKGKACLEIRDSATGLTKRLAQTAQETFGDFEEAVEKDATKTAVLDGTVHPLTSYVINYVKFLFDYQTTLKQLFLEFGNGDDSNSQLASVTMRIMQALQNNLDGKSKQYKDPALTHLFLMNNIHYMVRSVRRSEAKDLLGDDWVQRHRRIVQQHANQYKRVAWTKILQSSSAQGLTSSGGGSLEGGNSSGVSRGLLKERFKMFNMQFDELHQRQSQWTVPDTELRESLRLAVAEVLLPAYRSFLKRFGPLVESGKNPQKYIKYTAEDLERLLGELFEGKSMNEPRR
# [10] = target: T10, Arabidopsis SEC15B, yeast two-hybrid fusion (Arabidopsis thaliana) (UniProt F4JHH5); assay: two-hybrid
# T10 sequence: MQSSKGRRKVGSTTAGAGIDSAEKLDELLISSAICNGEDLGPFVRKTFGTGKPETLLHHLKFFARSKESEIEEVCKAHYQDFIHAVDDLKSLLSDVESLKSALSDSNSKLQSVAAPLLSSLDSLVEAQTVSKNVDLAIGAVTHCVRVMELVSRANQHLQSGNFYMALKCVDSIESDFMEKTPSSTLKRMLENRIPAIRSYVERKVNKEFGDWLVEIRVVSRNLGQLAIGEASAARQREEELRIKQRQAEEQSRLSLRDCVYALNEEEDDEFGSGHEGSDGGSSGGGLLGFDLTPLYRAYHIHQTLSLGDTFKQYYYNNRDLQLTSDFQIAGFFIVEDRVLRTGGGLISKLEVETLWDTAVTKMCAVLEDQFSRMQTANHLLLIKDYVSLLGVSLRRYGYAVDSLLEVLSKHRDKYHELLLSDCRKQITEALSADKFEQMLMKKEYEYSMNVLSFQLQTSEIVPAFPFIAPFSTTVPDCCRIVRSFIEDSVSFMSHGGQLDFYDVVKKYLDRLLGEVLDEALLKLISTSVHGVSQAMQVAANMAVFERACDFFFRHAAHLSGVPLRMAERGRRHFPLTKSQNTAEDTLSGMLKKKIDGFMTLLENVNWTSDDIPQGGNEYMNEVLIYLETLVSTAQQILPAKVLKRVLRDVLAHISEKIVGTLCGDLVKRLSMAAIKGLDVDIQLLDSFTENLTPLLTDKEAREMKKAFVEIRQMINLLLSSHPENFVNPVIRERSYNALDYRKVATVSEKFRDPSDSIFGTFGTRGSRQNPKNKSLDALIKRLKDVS
# [11] = target: T11, AtEXO70B2, yeast two-hybrid fusion (Arabidopsis thaliana) (UniProt Q9LMJ4); assay: two-hybrid
# T11 sequence: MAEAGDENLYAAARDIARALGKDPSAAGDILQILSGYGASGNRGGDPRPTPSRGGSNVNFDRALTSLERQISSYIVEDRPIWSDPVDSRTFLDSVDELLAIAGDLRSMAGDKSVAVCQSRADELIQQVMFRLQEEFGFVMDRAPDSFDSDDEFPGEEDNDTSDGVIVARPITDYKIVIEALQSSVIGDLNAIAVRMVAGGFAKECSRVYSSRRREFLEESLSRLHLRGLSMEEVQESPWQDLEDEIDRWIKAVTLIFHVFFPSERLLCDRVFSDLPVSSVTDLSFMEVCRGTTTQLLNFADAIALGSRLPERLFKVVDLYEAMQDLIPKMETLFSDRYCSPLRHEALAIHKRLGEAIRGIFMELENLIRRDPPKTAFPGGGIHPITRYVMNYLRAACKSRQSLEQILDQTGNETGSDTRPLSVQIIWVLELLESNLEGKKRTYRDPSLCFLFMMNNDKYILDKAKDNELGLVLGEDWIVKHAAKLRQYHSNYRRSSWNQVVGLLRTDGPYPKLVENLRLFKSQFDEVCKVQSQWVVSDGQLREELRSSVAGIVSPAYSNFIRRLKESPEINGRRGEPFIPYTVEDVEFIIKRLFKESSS
# [12] = target: T12, AtEXO70B1 E347K, yeast two-hybrid fusion (Arabidopsis thaliana) (UniProt Q9FGH9); assay: two-hybrid
# T12 sequence: T1 sequence with E347K
substance,measurement,setting,value
AvrRps4 effector from Pseudomonas syringae pv. pisi fused C-terminally with cCFP,binding,[1],no binding
"XccXopP N-terminal fragment (1 to 420 amino acids), yeast two-hybrid fusion (domain or fragment)",binding,[2],binds
same,binding,[3],binds
XccXopP fused C-terminally with cCFP,binding,[1],binds
same,binding,[4],binds
"Acidovorax citrulli XopP homolog, yeast two-hybrid fusion",binding,[5],no binding
"XopP-100 (XopP lacking the first 100 N-terminal residues), recombinant (domain or fragment)",binding,[6],binds
"XopP from Xanthomonas campestris pv. campestris, yeast two-hybrid fusion",binding,[7],no binding
same,binding,[8],no binding
same,binding,[2],binds
same,binding,[9],no binding
same,binding,[10],no binding
same,binding,[11],binds
same,binding,[3],binds
same,binding,[5],binds
same,binding,[12],binds
